Article PMC7948394
No constants are given. Whether binding was seen depends on the method and setting. In cells and extracts the contact can be indirect. Some results given as binding are weak or reduced against the parent protein; the word gives no strength.

Protein sequences, listed by entry. Tags and fused reporters are not part of them.
UniProt Q14209: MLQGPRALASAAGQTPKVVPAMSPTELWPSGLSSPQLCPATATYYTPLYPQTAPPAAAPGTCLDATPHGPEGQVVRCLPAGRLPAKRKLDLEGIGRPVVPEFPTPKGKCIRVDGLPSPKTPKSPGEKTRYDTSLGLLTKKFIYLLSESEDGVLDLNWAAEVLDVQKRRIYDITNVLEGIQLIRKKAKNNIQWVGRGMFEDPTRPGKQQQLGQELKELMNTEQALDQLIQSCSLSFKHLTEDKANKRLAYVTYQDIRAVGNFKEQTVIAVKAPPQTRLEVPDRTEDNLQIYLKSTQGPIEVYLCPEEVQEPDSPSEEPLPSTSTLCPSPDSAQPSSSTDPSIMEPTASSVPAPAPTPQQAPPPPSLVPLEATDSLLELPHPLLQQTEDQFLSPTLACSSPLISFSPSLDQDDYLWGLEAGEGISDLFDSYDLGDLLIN

Molecular target: T1, retinoblastoma tumor suppressor protein (RB) (human (endogenous in Jurkat)) (UniProt P06400)
T1 sequence: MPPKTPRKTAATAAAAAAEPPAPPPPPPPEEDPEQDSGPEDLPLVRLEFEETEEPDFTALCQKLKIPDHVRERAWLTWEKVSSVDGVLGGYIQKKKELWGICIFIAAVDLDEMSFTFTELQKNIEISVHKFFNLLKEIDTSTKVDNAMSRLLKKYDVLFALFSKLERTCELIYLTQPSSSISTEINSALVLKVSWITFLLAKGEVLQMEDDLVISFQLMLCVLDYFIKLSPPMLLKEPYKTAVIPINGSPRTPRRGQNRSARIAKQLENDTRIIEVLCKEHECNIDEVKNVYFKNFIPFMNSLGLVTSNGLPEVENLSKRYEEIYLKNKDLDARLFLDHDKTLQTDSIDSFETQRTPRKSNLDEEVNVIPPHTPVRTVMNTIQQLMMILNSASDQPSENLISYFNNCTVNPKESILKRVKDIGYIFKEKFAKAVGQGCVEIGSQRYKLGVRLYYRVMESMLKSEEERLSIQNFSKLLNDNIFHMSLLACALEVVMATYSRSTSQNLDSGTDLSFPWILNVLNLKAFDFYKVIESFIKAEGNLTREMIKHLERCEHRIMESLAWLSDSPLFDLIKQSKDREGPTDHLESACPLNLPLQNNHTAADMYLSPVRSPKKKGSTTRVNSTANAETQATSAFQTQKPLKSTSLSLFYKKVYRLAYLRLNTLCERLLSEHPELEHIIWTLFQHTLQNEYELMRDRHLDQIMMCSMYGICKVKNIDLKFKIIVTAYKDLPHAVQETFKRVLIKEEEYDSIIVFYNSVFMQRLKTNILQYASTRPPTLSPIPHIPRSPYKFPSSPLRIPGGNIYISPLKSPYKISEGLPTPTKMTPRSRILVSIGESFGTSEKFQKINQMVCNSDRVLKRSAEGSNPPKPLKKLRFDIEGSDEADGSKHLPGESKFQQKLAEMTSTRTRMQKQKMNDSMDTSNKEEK
Assay: co-IP; RB immunoprecipitated from Jurkat whole cell extracts (1 to 2 mg total protein) with anti-RB antibodies and Protein G Dynabeads, 4 °C overnight; cells treated with PBS or TCR cross-linked (anti-CD3, anti-CD28, secondary antibody) for 30 min; coimmunoprecipitating E2Fs detected by immunoblotting

binding: binds
Substance: E2F2 (from UniProt Q14209 1-437)
